The values that follow come from PubChem BioAssay (NCATS).

Each structure is given as a SMILES string. This is one part of the list. These are further read-outs of the screen, such as a control signal, another cell line or another target. No call is given for them. The list favours compounds with an active or inconclusive main result.
% is scaled to controls: 0 for no effect and ±100 for the full control effect.

The experiment in a line: qHTS assay for small molecule antagonists of retinoid X receptor alpha signaling (AID 588546).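 Also: cells stimulated with 9-cis-retinoic acid as agonist.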 As to conditions: HEK293T RXRa-UAS-bla, beta-lactamase ratio, antagonist mode; measured here: W530 green channel, cytotoxicity proxy. Put shortly:
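Beta-lactamase reporter inhibition, read as CCF4 fluorescence ratio (ex 405, em 460/530 nm) after 2 h at RT. HEK293T UAS-bla cells, 2500/well, were stimulated with 9-cis-RA at 500 or 100 nM final alongside test compound for 18 h at 37 C.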
Background: In qHTS, concentration-response curves come from the screen itself.
In the case of `CCCCCCC(O)CCCCCCCCCCC(=O)O` (stereo unspecified), the max response worked out at 0.416%.

On to `c1ccc2c(c1)ccc1cc3c(ccc4ccccc43)cc12`, for which the max response was -7.56%. The result for `O=C(O)CCCCCCCCC(=O)O` reads 0.0561%. Next, `Cc1ccc2oc(=O)ccc2c1`: -10.6%; `CC/C=C/CCCCCCCCCCOC(C)=O`: -9.46%; `CCCCCCC(O)CCCCCCCCCCC(=O)OC` (stereo unspecified): -7.31%.
